Literature values in patent US12728147B2, “Composition for preventing or treating inflammatory disease comprising hydrolysis extract of pulsatilla koreana and anemone raddeana as active ingredient” (priority 2020, dated 2026).
Some entries share one result that the patent states for a list of compounds. Some ranges recur; such a range may be that of the whole group of compounds.

System: human umbilical vein endothelial cells (HUVECs)
Conditions: at 1 μg/ml; cited from earlier work

Compound	Inhibition of HUVEC angiogenesis
CO[C@H]1C[C@H](O[C@H]2CC[C@]3(C=O)[C@H]4CC[C@]5(C)[C@@H](C6=CC(=O)OC6)CC[C@]5(O)[C@@H]4CC[C@]3(O)C2)O[C@H](C)[C@H]1O [cymarin]	60-80%
cymarilic acid	60-80%
cymarol	60-80%
